Experimental data reported in PubChem BioAssay AID2685 (National Center for Advancing Translational Sciences (NCATS), 2010).
This is one part of the list. These are further read-outs of the screen, such as a control signal, another cell line or another target. No call is given for them. The list favours compounds with an active or inconclusive main result. Potencies come from curve fits of mixed quality, noted in brackets.

Experiment: qHTS Assay for Lipid Storage Modulators in Drosophila S3 Cells;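 on cell number change: cells counted by Cell Tracker Red CMTPX staining in the red channel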
Settings: BODIPY lipid droplet fluorescence, 18-24 h; for cell number change: measured here: cell count max response, cells fed with added oleic acid
Procedure, shortened: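 Drosophila S3 cells loaded with oleic acid (400 uM, as added) and compounds at several concentrations; lipid droplets imaged by 488-nm laser-scanning cytometry, 500–530 nm intensity and object ratio to cell channel. Percent activity normalized to 20 uM Triacsin C.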

[1] = measured here: lipid fluorescence (Fed channel) AC50, cells fed with added oleic acid
[2] = measured here: cell number channel AC50, cells fed with added oleic acid

Structure (SMILES) | cell number change | AC50 [1] | AC50 [2]
COc1cc(OC)c(OC)cc1/C=N/NC(=O)c1ccc(=O)n(C)c1 | 9.12% | 20.6 µM [rising, partial curve] | –
CCOC(=O)c1cccc(NC(=O)CSc2nnc(COc3ccccc3C)o2)c1 | 2.49% | 2.06 µM [rising, single point] | 0.092 µM [rising, full curve, poor fit]
Cc1ncsc1C(=O)NCc1ccc(N2CCCC2=O)cc1 | – | 3.66 µM [falling, full curve] | –
O=C(O)c1ccc(/C=N/n2c(C3CCCCC3)n[nH]c2=S)cc1 | 23.9% | 9.2 µM [rising, partial curve] | –
O=C(NCc1ccco1)C1CCN(S(=O)(=O)c2ccccc2C(F)(F)F)CC1 | -21% | 0.058 µM [falling, full curve, poor fit] | –
O=C(c1cccs1)N1N=C(c2ccccc2)CC1c1ccc(O)cc1 (stereo unspecified) | – | – | 0.461 µM [rising, full curve, poor fit]
Cc1cc(C)n(-c2ccc(NC(=O)C3CCCCN3C(=O)c3ccoc3C)cc2)n1 (stereo unspecified) | -2.59% | 0.58 µM [rising, single point] | –
O=C(NN1CCCCC1)c1ccccc1 | -6.59% | – | –
CCc1ccc2oc(C(=O)NCc3ccc(S(N)(=O)=O)cc3)c(C)c2c1 | -21% | 29.1 µM [rising, single point] | 0.58 µM [falling, single point]
O=C(CNC(=O)c1ccc(Cl)cc1)Nc1ccccc1C(F)(F)F | -18.4% | 1.46 µM [falling, partial curve] | –
COc1cccc(NC(=O)CSc2nnc(-c3ccoc3C)n2-c2ccccc2)c1 | 103% | – | 23.1 µM [rising, partial curve]
Cc1ccc(C2CC(=O)C=C(NCC(C)C)C2)cc1 (stereo unspecified) | 11.5% | 5.8 µM [rising, partial curve, poor fit] | –
COC(=O)c1c(C)oc2ccc(NS(=O)(=O)c3cc(OC)ccc3OC)cc12 | – | 1.84 µM [rising, partial curve] | 1.84 µM [rising, partial curve]
CCCC(=O)Nc1cc2c3c(c1)C(C)C(=O)N3CCC2 (stereo unspecified) | 13.7% | – | 0.731 µM [rising, partial curve, poor fit]
CCn1cc(CN2CCN(CC(C)(C)C)C(CCO)C2)c2ccccc21 (stereo unspecified) | 23.8% | 6.51 µM [rising, single point] | –
CN(C)CCCn1c(=O)n(CCc2ccccc2)c(=O)c2c3c(sc21)CCCCC3 | -12.7% | 1.64 µM [falling, partial curve] | 0.651 µM [falling, full curve, poor fit]
Cn1cccc1C(=O)NC(=O)COC(=O)CCNS(=O)(=O)c1cccc(C(F)(F)F)c1 | -0.0684% | 0.92 µM [falling, full curve, poor fit] | –
CCOc1ccc(C(=O)NCC(=O)N2CCN(c3ccc(C(F)(F)F)cn3)CC2)cc1 | -7.52% | 0.517 µM [rising, full curve] | –
CCn1c(N2CCN(C(=S)Nc3ccc(OC)cc3)CC2)nc2ccccc21 | -39.6% | 32.6 µM [falling, single point] | 29.1 µM [falling, single point]

Shown with tabs: entries from further up.
Structure (SMILES)	cell number change	AC50 [1]	AC50 [2]
CCCC(=O)Nc1cc2c3c(c1)C(C)C(=O)N3CCC2 (stereo unspecified)	13.7%	–	0.731 µM [rising, partial curve, poor fit]
CCn1cc(CN2CCN(CC(C)(C)C)C(CCO)C2)c2ccccc21 (stereo unspecified)	23.8%	6.51 µM [rising, single point]	–
CN(C)CCCn1c(=O)n(CCc2ccccc2)c(=O)c2c3c(sc21)CCCCC3	-12.7%	1.64 µM [falling, partial curve]	0.651 µM [falling, full curve, poor fit]

The list continues:

Structure (SMILES) | cell number change | AC50 [1] | AC50 [2]
COc1ccc(C(C)NC(=O)C23CC4CC(CC(C4)C2)C3)cc1 (stereo unspecified) | -0.985% | 13 µM [falling, partial curve, poor fit] | –
C/C(Cc1ccccc1)=N\NC(=O)CNC(=O)c1cccc(Br)c1 | -7.37% | – | –
O=C(CN(Cc1ccccc1)C(=O)c1csnn1)NCc1ccccc1 | -6.97% | 7.31 µM [falling, single point] | 6.51 µM [falling, single point]
COc1ccc(OCC(=O)NS(=O)(=O)c2ccccc2)cc1 | 15.5% | 0.13 µM [rising, partial curve, poor fit] | –
CC(C)Cc1nc(Nc2ccc(S(=O)(=O)N3CCCC3)cc2)c2nnn(Cc3ccccc3)c2n1 | -18.3% | 18.4 µM [falling, single point] | –
CCC(C)n1c(=O)c2sccc2n2c(CCCC(=O)N3CCC(C(N)=O)CC3)nnc12 (stereo unspecified) | -40.7% | 0.146 µM [falling, full curve, poor fit] | 18.4 µM [falling, partial curve]
Cc1cc(CNC(=O)Cn2cc([N+](=O)[O-])cn2)c2ccccc2n1 | -19.5% | 6.51 µM [falling, single point] | –
O=S(=O)(Nc1cccc(F)c1)c1cccc2nsnc12 | -14.2% | – | –
COC(=O)c1cc(Cl)c(NC(=O)c2ccco2)cc1OC | -21.9% | 6.51 µM [rising, partial curve] | –
CCn1c(COc2cccc(C)c2)nnc1SCC(=O)N1CCCC1 | 73.1% | – | 18.4 µM [rising, single point]
O=C1CCCN1CC(CN1CCOCC1)Sc1nc2ccccc2c(=O)n1-c1ccccc1 (stereo unspecified) | -9.55% | – | 1.3 µM [rising, partial curve]
Cn1c(=O)n(CC(N)=O)c(=O)c2c1nc1n2CCCN1Cc1ccccc1 | 15.5% | 25.9 µM [rising, single point] | –
COc1ccc(NC2=NCC(Cc3ccc(Br)cc3)S2)cc1 (stereo unspecified) | -14% | 1.84 µM [rising, partial curve] | 0.259 µM [rising, full curve, poor fit]
Cc1c(NC(=O)CCCN2C(=O)c3cccc4cccc(c34)C2=O)c(=O)n(-c2ccccc2)n1C | 4.33% | – | 0.13 µM [rising, partial curve, poor fit]
Cc1nn(-c2ccccc2)c(N2CCCC2)c1/C=C1\N=C(c2ccc(F)cc2)OC1=O | 31.2% | – | 1.3 µM [rising, full curve, poor fit]
CC1=C(C(=O)OCC(C)C)C(c2cc3c(cc2Br)OCO3)NC(=O)N1C (stereo unspecified) | 153% | 9.2 µM [rising, partial curve] | 9.2 µM [rising, partial curve]
COC(=O)Cn1c(=N)n(CCN2CCCCC2)c2ccccc21 | 34.9% | – | 18.4 µM [rising, single point]
CCCC(C)NC(=O)Cn1c(=O)c2c(ncn2CCC(C)C)n(Cc2ccccc2)c1=O (stereo unspecified) | 4.05% | 6.51 µM [rising, single point] | –
Cc1nc2ccccc2nc(C)c1=NOCc1cccc(Cl)c1 | -0.275% | 1.64 µM [rising, full curve, poor fit] | –

Structure (SMILES) | cell number change | AC50 [1] | AC50 [2]
C=CCC(C(=O)Oc1c(C(C)(C)C)cc(C)cc1C(C)(C)C)c1ccccc1 (stereo unspecified) | 7.5% | 0.92 µM [rising, full curve] | –
CCc1cccc2c(C(=O)COC(=O)c3nn(C)c(=O)c4ccccc34)c[nH]c12 | -72.1% | 6.51 µM [falling, partial curve] | 8.2 µM [falling, partial curve]
O=C(N/N=C\c1cccc(Br)c1)c1ccccc1-n1cccc1 | 23.3% | 2.06 µM [rising, partial curve] | 1.03 µM [rising, partial curve, poor fit]
CCN(CC)c1ccc(NC(=O)c2ccc(Br)o2)c(C)c1 | – | 6.51 µM [rising, single point] | –
Cc1ccc(CNC(=O)CCc2nnc3ccc(N4CCC5(CC4)OCCO5)nn23)cc1 | -18.3% | 29.1 µM [falling, single point] | –
O=C(O)CC(c1cccc([N+](=O)[O-])c1)N1Cc2ccccc2C1=O (stereo unspecified) | -12.3% | 11.6 µM [falling, partial curve, poor fit] | –
O=C(Nc1ccccc1OC(F)F)c1ccc(F)cc1 | -141% | 0.651 µM [falling, single point] | 29.1 µM [falling, single point]
O=C(CCC(=O)N1CCN(c2cccc(Cl)c2)CC1)c1cccs1 | – | – | 3.66 µM [rising, single point]
Nc1ccc(-n2nncc2-c2ccc(Cl)cc2)cc1 | – | 2.06 µM [rising, partial curve] | 1.46 µM [rising, partial curve, poor fit]
CCOC(=O)C1CCN(c2cc3c(cc2NC(=O)c2ccccc2F)n(C)c(=O)n3C)CC1 | 6.84% | 20.6 µM [falling, partial curve] | 0.517 µM [falling, full curve, poor fit]
O=[N+]([O-])c1ccc(Cc2nnc(-c3ccccc3Cl)o2)cc1 | 27.1% | 0.092 µM [rising, partial curve, poor fit] | –
O=c1c2[nH]c3ccc(Cl)cc3c2ncn1Cc1ccccn1 | 201% | – | 23.1 µM [rising, partial curve]
Cc1csc(NC(=O)CSc2nc(C(C)C)nc3c2c(=O)n(C)c(=O)n3C)n1 | -47.5% | 20.6 µM [falling, partial curve] | 18.4 µM [falling, single point]
Cc1nnc(SCCC#N)n(CCC#N)c1=O | 1.69% | – | –
O=C(c1ccc(CSc2nc3ccncc3[nH]2)cc1)N1CCCCC1 | 10.4% | 2.31 µM [rising, partial curve] | –
COc1cccc(NC(=O)Cc2ccccc2)c1 | 6.24% | 0.731 µM [falling, full curve] | –
CCCCC(=O)NC(Nc1ccc(C)cn1)(C(=O)OCC)C(F)(F)F (stereo unspecified) | -23.7% | 9.2 µM [falling, partial curve] | –
COc1ccc(NC(=O)c2noc(C(C)C)c2[N+](=O)[O-])cc1 | -4.28% | – | –
